These are yes or no findings as the source states them, for the method shown. In cells and extracts the contact can be indirect. Some entries that bind do so weakly or less than the wild type.
Target: E-cadherin (human (endogenous in human SW1736 cells)) (UniProt P12830)
Experiment: co-immunoprecipitation from SW1736 cell lysates with anti-IQGAP1 antibody, Western blotting

Sequences of proteins named here, by UniProt entry; tags and fusion partners are left off. Residues count along the entry.
UniProt P12830, residues 155-882: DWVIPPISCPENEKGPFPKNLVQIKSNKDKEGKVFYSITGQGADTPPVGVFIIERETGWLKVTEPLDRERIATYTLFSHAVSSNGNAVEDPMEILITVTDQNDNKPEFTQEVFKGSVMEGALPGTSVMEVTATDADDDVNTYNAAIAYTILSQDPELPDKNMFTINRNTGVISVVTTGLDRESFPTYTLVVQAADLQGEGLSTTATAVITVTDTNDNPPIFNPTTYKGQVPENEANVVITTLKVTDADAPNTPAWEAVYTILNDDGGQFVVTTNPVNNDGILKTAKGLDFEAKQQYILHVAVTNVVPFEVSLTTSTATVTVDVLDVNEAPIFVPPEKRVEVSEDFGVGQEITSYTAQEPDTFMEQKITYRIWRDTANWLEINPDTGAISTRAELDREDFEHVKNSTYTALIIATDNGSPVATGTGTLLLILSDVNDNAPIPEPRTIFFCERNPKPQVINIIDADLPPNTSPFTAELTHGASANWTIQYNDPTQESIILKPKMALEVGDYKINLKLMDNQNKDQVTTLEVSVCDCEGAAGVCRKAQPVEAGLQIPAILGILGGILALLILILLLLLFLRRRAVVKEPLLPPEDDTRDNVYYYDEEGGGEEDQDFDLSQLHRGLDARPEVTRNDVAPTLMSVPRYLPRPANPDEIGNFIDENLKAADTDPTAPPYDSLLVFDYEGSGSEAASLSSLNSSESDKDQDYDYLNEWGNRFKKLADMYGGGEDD
UniProt P46940, residues 2-1657: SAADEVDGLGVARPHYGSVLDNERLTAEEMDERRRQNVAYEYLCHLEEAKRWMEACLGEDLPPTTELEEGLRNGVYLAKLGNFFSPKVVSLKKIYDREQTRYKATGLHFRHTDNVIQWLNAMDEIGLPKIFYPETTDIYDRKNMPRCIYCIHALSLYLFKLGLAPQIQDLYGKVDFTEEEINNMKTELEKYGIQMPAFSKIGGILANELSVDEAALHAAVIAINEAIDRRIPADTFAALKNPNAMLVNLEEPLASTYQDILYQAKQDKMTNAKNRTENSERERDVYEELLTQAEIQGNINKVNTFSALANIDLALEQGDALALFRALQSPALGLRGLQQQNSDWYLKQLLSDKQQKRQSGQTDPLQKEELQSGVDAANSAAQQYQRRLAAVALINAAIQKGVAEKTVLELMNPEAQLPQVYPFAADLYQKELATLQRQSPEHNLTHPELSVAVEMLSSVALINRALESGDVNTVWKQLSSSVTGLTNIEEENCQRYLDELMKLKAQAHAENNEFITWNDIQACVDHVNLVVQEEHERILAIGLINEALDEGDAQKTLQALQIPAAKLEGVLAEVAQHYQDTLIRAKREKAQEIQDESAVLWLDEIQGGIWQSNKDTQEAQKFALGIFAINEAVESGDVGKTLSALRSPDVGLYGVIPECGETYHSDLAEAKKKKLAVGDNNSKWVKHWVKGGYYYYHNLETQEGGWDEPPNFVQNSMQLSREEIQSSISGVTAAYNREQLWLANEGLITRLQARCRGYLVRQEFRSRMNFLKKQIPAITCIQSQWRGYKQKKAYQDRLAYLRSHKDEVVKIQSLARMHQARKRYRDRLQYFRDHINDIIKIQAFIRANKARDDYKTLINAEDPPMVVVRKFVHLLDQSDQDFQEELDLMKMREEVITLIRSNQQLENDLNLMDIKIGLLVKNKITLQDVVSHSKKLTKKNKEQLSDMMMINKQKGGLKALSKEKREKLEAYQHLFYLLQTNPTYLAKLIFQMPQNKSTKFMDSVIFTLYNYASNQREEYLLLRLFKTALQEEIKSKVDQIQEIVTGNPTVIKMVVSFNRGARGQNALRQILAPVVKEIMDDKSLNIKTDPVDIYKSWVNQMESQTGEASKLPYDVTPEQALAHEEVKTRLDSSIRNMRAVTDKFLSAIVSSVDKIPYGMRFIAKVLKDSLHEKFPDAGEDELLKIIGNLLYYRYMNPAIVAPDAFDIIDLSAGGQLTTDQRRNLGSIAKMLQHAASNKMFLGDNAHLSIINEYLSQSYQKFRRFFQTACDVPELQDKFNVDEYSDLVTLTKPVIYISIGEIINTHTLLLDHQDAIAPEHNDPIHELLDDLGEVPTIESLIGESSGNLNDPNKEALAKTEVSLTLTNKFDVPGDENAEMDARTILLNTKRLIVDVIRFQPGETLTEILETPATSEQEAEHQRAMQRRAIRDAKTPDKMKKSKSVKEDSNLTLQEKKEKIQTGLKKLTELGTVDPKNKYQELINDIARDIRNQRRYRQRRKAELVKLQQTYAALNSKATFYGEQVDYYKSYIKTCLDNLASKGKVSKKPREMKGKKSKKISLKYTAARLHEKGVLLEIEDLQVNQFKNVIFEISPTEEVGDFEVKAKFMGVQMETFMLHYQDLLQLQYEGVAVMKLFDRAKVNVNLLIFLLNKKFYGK

binding: binds
Substance: IQGAP1 (IQ motif containing GTPase activating protein 1) (from UniProt P46940 2-1657)

Source: patent US20130315930A1
